This is an account of results in patent US12643855B2 (UNIVERSITE DE STRASBOURG, priority 2020, dated 2026).

For part of these data: The same purity stands for every peptide and may come from a single statement. Bounds are passed on as bounds.

A short description of series [1]: general procedure: Fmoc solid-phase peptide synthesis; Fmoc Rink Amide AM resin; HBTU/HOBt/DIEA; HATU/tetramethylpiperidine for Fmoc-Cys(Mmt)-OH; DIC/HOBt for 4-. The following applies: whole synthesis, scale 0.21 mmol.
A short description of series [2]: general procedure: Fmoc solid-phase peptide synthesis; Fmoc Rink Amide AM resin (loading 0.7 mmol/g); HBTU/HOBt/DIEA; HATU/tetramethylpiperidine for Fmoc-Cys(Mmt)-OH; DIC/HOBt for 4-. The following applies: whole synthesis, 220.8 nm, scale of the general procedure 0.21 mmol.

Lys(N3)-CBT: in series [1], the isolated mass is 60 mg and the isolated yield is 28%. Further, the “final HPLC purity” value in series [2] is on record as above 95%.
